Drawing on PMC7819943, “Rice protein-binding microarrays: a tool to detect cis-acting elements near promoter regions in rice”, this text covers binding signal for 42 sequences.

Protein sequences, listed by entry. Tags and fused reporters are not part of them.
UniProt Q0JBA9, entry or part of it: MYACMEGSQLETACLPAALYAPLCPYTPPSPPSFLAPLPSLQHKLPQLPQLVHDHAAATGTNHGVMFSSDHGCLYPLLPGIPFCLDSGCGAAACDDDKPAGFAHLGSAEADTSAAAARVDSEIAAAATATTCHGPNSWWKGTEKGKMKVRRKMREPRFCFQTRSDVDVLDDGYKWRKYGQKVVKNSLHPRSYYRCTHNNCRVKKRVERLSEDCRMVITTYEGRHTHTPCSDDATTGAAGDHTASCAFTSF

The list shows a part of the results.

In this assay the target is OsWRKY34 (Oryza sativa, UniProt Q0JBA9 1-250). The assay is described as follows: protein-binding microarray (RPBM); PBS, 2% BSA, 51.3 ng/ul salmon testes DNA, 50 uM zinc acetate, 200 nM TF, 25 C, 1 h; high values mean tight binding. As to conditions: protein: recombinant; tags: N-terminal polyhistidine and DsRed monomer fusion (pET32a); label: CyDye5-dUTP incorporated in the synthesized complementary strand; 3' TTTTT single-stranded linker to array surface; dsDNA, one strand shown. Put shortly: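 Ni–NTA purification followed expression in E. coli BL21-CodonPlus of transcription factors fused N-terminally to a polyhistidine tag and DsRed. At 200 nM in PBS with 2% BSA, salmon testes DNA and 50 µM zinc acetate, the protein was incubated for 1 h at 25 °C with a custom Agilent array that had been primer-extended with Cy5-dUTP and blocked with 2% BSA. After washing, the array was read on an Axon 4000B scanner. The binding signal is per-feature fluorescence intensity in arbitrary units.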
As to “GTCAATCCATCCACCGCTGGTTAACAGTGCGCATGAACATCGGAGTCACCTAGTGCAG”, the binding signal is 9720 fluorescence intensity (a.u.).
“TTTGTTTTCATTTCATGTTCATATTCATATTTTCTTGTCTCGGAGTCACCTAGTGCAG”: the binding signal was 8360 fluorescence intensity (a.u.).
Take “TTTGTTGTCTCTTCATCCTACGTATTCTTTTTTTGCAATTCGGAGTCACCTAGTGCAG”: the binding signal was 8730 fluorescence intensity (a.u.).
Regarding “ATCGTACTGGGGTTAGTGGGGTGGATTATGTTATCTCTACCGGAGTCACCTAGTGCAG”, the binding signal is 14800 fluorescence intensity (a.u.).
For “CCGCGTCCAACTTTGATCGTCCGTCTTATTTGAAACTTTTCGGAGTCACCTAGTGCAG” the value was 10700 fluorescence intensity (a.u.).
For “CGATTCCCAACCCTAACCGTCGTCACTGCCACCGCCAGCCCGGAGTCACCTAGTGCAG” the value was 8470 fluorescence intensity (a.u.).
Consider “CTTATAAATCCTTCACTTTTGCGTGCACTAACCTACCAAACGGAGTCACCTAGTGCAG”, for which the binding signal is 8750 fluorescence intensity (a.u.).
As to “TACAGACCAAATCACCCGAATCGATCTCTGCCGTCCATCTCGGAGTCACCTAGTGCAG”, the binding signal was 9790 fluorescence intensity (a.u.).
On to “CTTTGTCCCATTCGTTTTTTATTTTTGGCCCGCTTTGTACCGGAGTCACCTAGTGCAG”, for which the binding signal is 10100 fluorescence intensity (a.u.).
The same measure for “CATGCAAGACATGGTTTCCTTCTCTTTTCTCATTTTTTCGCGGAGTCACCTAGTGCAG”: 8580 fluorescence intensity (a.u.).
The same measure for “TTAGTACATTCAATTATTGCTGGAGTTCTAGTTTTTTTTTCGGAGTCACCTAGTGCAG”: 8480 fluorescence intensity (a.u.); for “GGAGGTACACAAAGGGGTGTGGTGGTTTCATAAGTTTCAACGGAGTCACCTAGTGCAG”: 10400 fluorescence intensity (a.u.).
For the sequence “ACCCTCACCTCGTTCTCTATTTCTCCGTCCCAGCCACTGTCGGAGTCACCTAGTGCAG”, the binding signal is 12200 fluorescence intensity (a.u.).
For “CATCTCTCTCAACTCTCTGCAGCCCATTCACTGCACCAGTCGGAGTCACCTAGTGCAG” the value was 9360 fluorescence intensity (a.u.).
“AGCTATTATTCATCCGAATCCGTTCCGTTTTCACCAATAACGGAGTCACCTAGTGCAG”: the binding signal was 9570 fluorescence intensity (a.u.).
Take “ATAAGTGTTCTATCTCTCCTTTACGTTCCTTGATTCAATCCGGAGTCACCTAGTGCAG”: the binding signal is 8820 fluorescence intensity (a.u.).
The same measure for “GAGAAAAGGAGGGCAGAGATGGAGTGAGTGGCTTTGACTTCGGAGTCACCTAGTGCAG”: 8340 fluorescence intensity (a.u.); for “TACTCTCTCTTGTGTCTGAATTGTGGACTTCCTCATTCAGCGGAGTCACCTAGTGCAG”: 8580 fluorescence intensity (a.u.); for “CCTTCCGCCCGATCATTCCCAGCGCCGACTGGCTACTCTGCGGAGTCACCTAGTGCAG”: 10600 fluorescence intensity (a.u.).
For “CACTCGATCCCCATTCCTTCACATGATCTTGCACCCCGCTCGGAGTCACCTAGTGCAG” the value was 8180 fluorescence intensity (a.u.); for “TTTTAACTTTGATCCAGTTCGCGTGTTCAATTCTCAACACCGGAGTCACCTAGTGCAG”, 8620 fluorescence intensity (a.u.).
For “TCGCTGTTGGGGAATGGGGAGTAGTAGTAGTAACTGTAGCCGGAGTCACCTAGTGCAG” the value was 9560 fluorescence intensity (a.u.); for “TCAGCAACTCCAACCGATCCACTAATTACACGTCAGCTTGCGGAGTCACCTAGTGCAG”, 8130 fluorescence intensity (a.u.); for “CACACCATCTCACCATCTGCCCTTTCTTAATGGCAAACAACGGAGTCACCTAGTGCAG”, 8280 fluorescence intensity (a.u.).
With “CTCTCTGGCAGCAACAGTTCACATGGCCTAGTTGACATTACGGAGTCACCTAGTGCAG”, the binding signal was 9080 fluorescence intensity (a.u.).
Take “AATCCGGCGAGATTTCCGAAAAACTGCCCCGCACGCGCACCGGAGTCACCTAGTGCAG”: the binding signal was 8430 fluorescence intensity (a.u.).
For “TCGTTCCATTTCTATTATCTGCTTCTTGTTCAGCATCGATCGGAGTCACCTAGTGCAG” the value was 8890 fluorescence intensity (a.u.); for “AGTCAACAGGGAGGGTAAAATAAGAAAGCAACAGCAAGAGCGGAGTCACCTAGTGCAG”, 9730 fluorescence intensity (a.u.); for “CTCTCCCCGCGCGCGCTTTTCCAACTAGCCGTTGGTGCTCCGGAGTCACCTAGTGCAG”, 8510 fluorescence intensity (a.u.).
Regarding “TTTTGTTTTGCTTTTGCTGTTTTCTTTCAGCCTTTGTGTACGGAGTCACCTAGTGCAG”, the binding signal was 10800 fluorescence intensity (a.u.).
Turning to “TGCGTGGGTGCGAGGAATCGGGCTGGTTATTGATGGATCCCGGAGTCACCTAGTGCAG”, the binding signal is 8700 fluorescence intensity (a.u.).
Consider “TTATTTTTACGCGTCTTGTAGTTAAGTACAGTATATTTTTCGGAGTCACCTAGTGCAG”, for which the binding signal is 10500 fluorescence intensity (a.u.).
For “TCCCATTTACCACGTCAGCAAAAACCATTTCCCAAAACATCGGAGTCACCTAGTGCAG”, the binding signal is 9350 fluorescence intensity (a.u.).
For “GCCCGCCACCCGCCACCCACATCGCGCTCGCCGATCGCCGCGGAGTCACCTAGTGCAG” the value was 8540 fluorescence intensity (a.u.); for “GAGTTGACTAGGATTCAAGCCAATTTTTATCCAACCAAAACGGAGTCACCTAGTGCAG”, 8330 fluorescence intensity (a.u.); for “TCTGTATGGTCTACTTGTTTGATTGATTGATAATTTTACACGGAGTCACCTAGTGCAG”, 9240 fluorescence intensity (a.u.).
Consider “AAATCCGCTTCCAATTCGCGAAACTACACTAGTCGTAAGCCGGAGTCACCTAGTGCAG”, for which the binding signal is 8160 fluorescence intensity (a.u.).
The same measure for “TTTTGTAGTTAATGTATAGGTATCAGTTCCAAGGGGCTATCGGAGTCACCTAGTGCAG”: 9710 fluorescence intensity (a.u.); for “TCTGCAGTGTGTTGAGTGCGTCGGGAGGGCTCAAGGATGGCGGAGTCACCTAGTGCAG”: 8810 fluorescence intensity (a.u.); for “AGGTCAGGCTGAGATGCCATGATTCTTGCAGCACATAGAACGGAGTCACCTAGTGCAG”: 8170 fluorescence intensity (a.u.).
The same measure for “CCACAGCCACACTCTCTCCATTATCTAACTGCTCCTTTAACGGAGTCACCTAGTGCAG”: 8470 fluorescence intensity (a.u.); for “GGGTTAAGGGTGGTTGTGCCTTATATTTTGTAATGGAGGACGGAGTCACCTAGTGCAG”: 8070 fluorescence intensity (a.u.).
